Assay results from the supplement of paper PMC12889115.
This is one part of the list. These are raw signals, not scaled to a control.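 Primary screen: polymyxin B was added at a level permeabilizing Salmonella outer membranes while sparing inner membranes. DMSO wells, both with and without polymyxin B, established maximum growth. Plate-to-plate variation meant each plate was ranked on its own, and the lowest-OD600 compounds were selected as hits.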

Tested on: Salmonella enterica serovar Typhimurium SL1344
Test: bacterial growth OD600 after 18 h with compound and polymyxin B; higher = more bacterial growth (less inhibition)
Settings: 50 µM, Mueller-Hinton broth

Row | SMILES | bacterial growth OD600 (polymyxin B 1 µg/mL) | bacterial growth OD600 (polymyxin B 0.75 µg/mL)
1 | Cc1cc2c(cc1CNC1CC(=O)N(CCCc3ccccc3)C1)OCO2 (configuration not stated) | 0.927 | 
2 | O=C1N(CC2CCCCC2)CCCC1(O)CNC1CCCC1 (configuration not stated) |  | 1.02
3 | Cc1nonc1CN(C)c1ccc(-c2nc(Cc3ccc(F)cc3)no2)cn1 |  | 0.772
4 | Cc1nccn1-c1ccc(NC(=O)C2CCCN2C(=O)c2ccoc2)cc1 (configuration not stated) |  | 0.817
5 | Cc1ccc(CN2CCOc3ccc(C(C)(O)COc4ccccc4)cc3C2)s1 (configuration not stated) |  | 0.023
6 | COc1cccc(CN2CCCC(O)(CN3CCC4(CC3)OCCO4)C2=O)c1 (configuration not stated) | 0.803 | 
7 | COc1cccc(CC2(CO)CCCN(Cc3cn(C)nc3C)C2)c1 (configuration not stated) | 0.926 | 
8 | COC(=O)c1ccc(CNC2CCN(c3ccc(CC(=O)NCc4ccccc4)cc3)CC2)cc1 |  | 0.919
9 | CCOC(=O)N1CCC(NC(=O)c2ccc(OC3CCN(C)CC3)c(OC)c2)CC1 |  | 0.845
10 | O=C(c1cn(C2CCCCC2)nn1)N1CCCC1c1ccc(F)cc1 (configuration not stated) | 0.66 | 
11 | O=C(Cc1cn2ccsc2n1)NCc1cccnc1Oc1ccccc1 | 0.879 | 
12 | CCOC(=O)C1(CCCc2ccccc2)CCCN(C(=O)c2cc(=O)n(C)c(=O)n2C)C1 (configuration not stated) | 1.09 | 
13 | COC(=O)C1CCCCN1Cc1nc(NCc2cccs2)c2ccccc2n1 (configuration not stated) |  | 0.687
14 | CC(=O)Nc1ccc(C(=O)N2CCCC(Nc3cccc(F)c3)C2)cc1 (configuration not stated) | 0.004 | 
15 | O=C(c1ccc2c(c1)OCO2)N1CCc2[nH]nc(-c3ccccc3F)c2C1 |  | 0.477
16 | Cc1ccccc1-c1noc(-c2ccc(N3CCC(CCO)CC3)nc2)n1 |  | 0.532

Rewritten field by field: part of the list above.
O=C(c1cn(C2CCCCC2)nn1)N1CCCC1c1ccc(F)cc1 (configuration not stated)
  bacterial growth OD600 (polymyxin B 1 µg/mL): 0.66
Cc1ccccc1-c1noc(-c2ccc(N3CCC(CCO)CC3)nc2)n1
  bacterial growth OD600 (polymyxin B 0.75 µg/mL): 0.532

The list continues:

Row | SMILES | bacterial growth OD600 (polymyxin B 1 µg/mL) | bacterial growth OD600 (polymyxin B 0.75 µg/mL)
17 | O=C(CCC1CCCN(Cc2ccccc2F)C1)NC1CC1 (configuration not stated) |  | 0.938
18 | Nc1cc(C(=O)N2CCC(C3CCN(c4ncccn4)CC3)C2)ccn1 (configuration not stated) |  | 0.984
19 | CN(Cc1cccs1)Cc1cnc(S(C)(=O)=O)n1CC1CCCO1 (configuration not stated) | 1.03 | 
20 | Cc1cc(-c2cc(F)cc3c2OC(CNC(=O)c2ccco2)C3)ccc1F (configuration not stated) |  | -0.001
21 | CCCCC1CN(CCC(=O)NC(C)Cc2ccccn2)Cc2ccccc2O1 (configuration not stated) |  | 0.706
22 | O=C(NCCc1c[nH]c2ccccc12)c1cccc(OC2CCN(C(=O)C3CC3)CC2)c1 | 0.923 | 
23 | COc1ccc(C(=O)N2CCOC(Cc3cccc(C(F)(F)F)c3)C2)o1 (configuration not stated) |  | 0.775
24 | O=C(c1ccccc1OC1CCN(Cc2c(F)cccc2Cl)CC1)N1CCCC1 | 1.08 | 
25 | CCOC(=O)C1(Cc2ccccc2F)CCCN(C(=O)c2ccccc2C(=O)OC)C1 (configuration not stated) | 0.647 | 
26 | CCOC(=O)C1(Cc2ccc(F)cc2)CCCN(C(=O)c2cc(C(C)=O)n[nH]2)C1 (configuration not stated) | 1.01 | 
27 | CC(=O)N1CCN(c2nc(CN(CCc3ccccc3)Cc3ccccc3)nc3ccccc23)CC1 |  | 0.844
28 | CC(=O)NCCC(=O)N1CCCC(CCc2cccc(C(F)(F)F)c2)C1 (configuration not stated) |  | 0.011
29 | COc1ccccc1CCNC(=O)Cc1ccc(N2CCC(NCCn3cccn3)CC2)cc1 |  | 0.813
30 | Cc1ccc(CNC(=O)C2CCCN(C3CCN(C(=O)C4CC4)CC3)C2)cc1F (configuration not stated) | 0.829 | 
31 | COc1cc(CN2CCC(n3nccc3NC(=O)c3ccccc3)CC2)cc(OC)c1 |  | 0.881
32 | COc1ccccc1CCNC(=O)Cc1ccc(N2CCC(NC(C)Cc3cncs3)CC2)cc1 (configuration not stated) |  | 0.859
